Test system: carbonylated plasma proteins
Assay: iTRAQ and MALDI/TOF/TOF quantitative comparison of avidin-selected carbonylated proteins, breast cancer patients vs controls (Table 8)
Parameters: species or system Homo sapiens
Settings: avidin-selected carbonylated protein in plasma, breast cancer patient vs matched control, iTRAQ; repeated lines of a protein = different donors; negative = lower in cancer

Molecule	Breast cancer/control (fold change)
Origin recognition complex subunit 4 (protein, UniProt O43929 1-436, looked up) Origin recognition complex …: MSSRKSKSNSLIHTECLSQVQRILRERFCRQSPHSNLFGVQVQYKHLSELLKRTALHGESNSVLIIGPRGSGKTMLINHALKELMEIEEVSENVLQVHLNGLLQINDKIALKEITRQLNLENVVGDKVFGSFAENLSFLLEALKKGDRTSSCPVIFILDEFDLFAHHKNQTLLYNLFDISQSAQTPIAVIGLTCRLDILELLEKRVKSRFSHRQIHLMNSFGFPQYVKIFKEQLSLPAEFPDKVFAEKWNENVQYLSEDRSVQEVLQKHFNISKNLRSLHMLLMLALNRVTASHPFMTAVDLMEASQLCSMDSKANIVHGLSVLEICLIIAMKHLNDIYEEEPFNFQMVYNEFQKFVQRKAHSVYNFEKPVVMKAFEHLQQLELIKPMERTSGNSQREYQLMKLLLDNTQIMNALQKYPNCPTDVRQWATSSLSWL	−1.6
Kininogen-1 precursor (protein, UniProt P01042 1-644, looked up, full-length oxidized) MKLITILFLCSRLLLSLTQESQSEEIDCNDKDLFKAVDAALKKYNSQNQSNNQFVLYRITEATKTVGSDTFYSFKYEIKEGDCPVQSGKTWQDCEYKDAAKAATGECTATVGKRSSTKFSVATQTCQITPAEGPVVTAQYDCLGCVHPISTQSPDLEPILRHGIQYFNNNTQHSSLFMLNEVKRAQRQVVAGLNFRITYSIVQTNCSKENFLFLTPDCKSLWNGDTGECTDNAYIDIQLRIASFSQNCDIYPGKDFVQPPTKICVGCPRDIPTNSPELEETLTHTITKLNAENNATFYFKIDNVKKARVQVVAGKKYFIDFVARETTCSKESNEELTESCETKKLGQSLDCNAEVYVVPWEKKIYPTVNCQPLGMISLMKRPPGFSPFRSSRIGEIKEETTVSPPHTSMAPAQDEERDSGKEQGHTRRHDWGHEKQRKHNLGHGHKHERDQGHGHQRGHGLGHGHEQQHGLGHGHKFKLDDDLEHQGGHVLDHGHKHKHGHGHGKHKNKGKKNGKHNGWKTEHLASSSEDSTTPSAQTQEKTEGPTPIPSLAKPGVTVTFSDFQDSDLIATMMPPISPAPIQSDDDWIPDIQIDPNGLSFNPISDFPDTTSPKCPGRPWKSVSEINPTTQMKESYYFDLTDGLS	1.9
Peroxiredoxin-2 (protein, UniProt P32119 2-198, looked up) Peroxiredoxin-2: ASGNARIGKPAPDFKATAVVDGAFKEVKLSDYKGKYVVLFFYPLDFTFVCPTEIIAFSNRAEDFRKLGCEVLGVSVDSQFTHLAWINTPRKEGGLGPLNIPLLADVTRRLSEDYGVLKTDEGIAYRGLFIIDGKGVLRQITVNDLPVGRSVDEALRLVQAFQYTDEHGEVCPAGWKPGSDTIKPNVDDSKEYFSKHN	−9.2
Mannan-binding lectin serine protease 2 precursor (protein, UniProt O00187 16-686, looked up) Mannan-binding lectin serine …: TPLGPKWPEPVFGRLASPGFPGEYANDQERRWTLTAPPGYRLRLYFTHFDLELSHLCEYDFVKLSSGAKVLATLCGQESTDTERAPGKDTFYSLGSSLDITFRSDYSNEKPFTGFEAFYAAEDIDECQVAPGEAPTCDHHCHNHLGGFYCSCRAGYVLHRNKRTCSALCSGQVFTQRSGELSSPEYPRPYPKLSSCTYSISLEEGFSVILDFVESFDVETHPETLCPYDFLKIQTDREEHGPFCGKTLPHRIETKSNTVTITFVTDESGDHTGWKIHYTSTAQPCPYPMAPPNGHVSPVQAKYILKDSFSIFCETGYELLQGHLPLKSFTAVCQKDGSWDRPMPACSIVDCGPPDDLPSGRVEYITGPGVTTYKAVIQYSCEETFYTMKVNDGKYVCEADGFWTSSKGEKSLPVCEPVCGLSARTTGGRIYGGQKAKPGDFPWQVLILGGTTAAGALLYDNWVLTAAHAVYEQKHDASALDIRMGTLKRLSPHYTQAWSEAVFIHEGYTHDAGFDNDIALIKLNNKVVINSNITPICLPRKEAESFMRTDDIGTASGWGLTQRGFLARNLMYVDIPIVDHQKCTAAYEKPPYPRGSVTANMLCAGLESGGKDSCRGDSGGALVFLDSETERWFVGGIVSWGSMNCGEAGQYGVYTKVINYIPWIENIISDF	9.0
Serum paraoxonase/arylesterase 1 (protein, UniProt P27169 2-355, looked up) Serum …: AKLIALTLLGMGLALFRNHQSSYQTRLNALREVQPVELPNCNLVKGIETGSEDLEILPNGLAFISSGLKYPGIKSFNPNSPGKILLMDLNEEDPTVLELGITGSKFDVSSFNPHGISTFTDEDNAMYLLVVNHPDAKSTVELFKFQEEEKSLLHLKTIRHKLLPNLNDIVAVGPEHFYGTNDHYFLDPYLQSWEMYLGLAWSYVVYYSPSEVRVVAEGFDFANGINISPDGKYVYIAELLAHKIHVYEKHANWTLTPLKSLDFNTLVDNISVDPETGDLWVGCHPNGMKIFFYDSENPPASEVLRIQNILTEEPKVTQVYAENGTVLQGSTVASVYKGKLLIGTVFHKALYCEL	1.6
Microtubule-associated protein 4 (protein, UniProt P27816 2-1152, looked up) Microtubule-associated …: ADLSLADALTEPSPDIEGEIKRDFIATLEAEAFDDVVGETVGKTDYIPLLDVDEKTGNSESKKKPCSETSQIEDTPSSKPTLLANGGHGVEGSDTTGSPTEFLEEKMAYQEYPNSQNWPEDTNFCFQPEQVVDPIQTDPFKMYHDDDLADLVFPSSATADTSIFAGQNDPLKDSYGMSPCNTAVVPQGWSVEALNSPHSESFVSPEAVAEPPQPTAVPLELAKEIEMASEERPPAQALEIMMGLKTTDMAPSKETEMALAKDMALATKTEVALAKDMESPTKLDVTLAKDMQPSMESDMALVKDMELPTEKEVALVKDVRWPTETDVSSAKNVVLPTETEVAPAKDVTLLKETERASPIKMDLAPSKDMGPPKENKKETERASPIKMDLAPSKDMGPPKENKIVPAKDLVLLSEIEVAQANDIISSTEISSAEKVALSSETEVALARDMTLPPETNVILTKDKALPLEAEVAPVKDMAQLPETEIAPAKDVAPSTVKEVGLLKDMSPLSETEMALGKDVTPPPETEVVLIKNVCLPPEMEVALTEDQVPALKTEAPLAKDGVLTLANNVTPAKDVPPLSETEATPVPIKDMEIAQTQKGISEDSHLESLQDVGQSAAPTFMISPETVTGTGKKCSLPAEEDSVLEKLGERKPCNSQPSELSSETSGIARPEEGRPVVSGTGNDITTPPNKELPPSPEKKTKPLATTQPAKTSTSKAKTQPTSLPKQPAPTTIGGLNKKPMSLASGLVPAAPPKRPAVASARPSILPSKDVKPKPIADAKAPEKRASPSKPASAPASRSGSKSTQTVAKTTTAAAVASTGPSSRSPSTLLPKKPTAIKTEGKPAEVKKMTAKSVPADLSRPKSTSTSSMKKTTTLSGTAPAAGVVPSRVKATPMPSRPSTTPFIDKKPTSAKPSSTTPRLSRLATNTSAPDLKNVRSKVGSTENIKHQPGGGRAKVEKKTEAAATTRKPESNAVTKTAGPIASAQKQPAGKVQIVSKKVSYSHIQSKCGSKDNIKHVPGGGNVQIQNKKVDISKVSSKCGSKANIKHKPGGGDVKIESQKLNFKEKAQAKVGSLDNVGHLPAGGAVKTEGGGSEAPLCPGPPAGEEPAISEAAPEAGAPTSASGLNGHPTLSGGGDQREAQTLDSQIQETSI	−3.0
Laminin subunit gamma-2 precursor (protein, UniProt Q13753 22-1193, looked up) Laminin subunit gamma-2: TSRREVCDCNGKSRQCIFDRELHRQTGNGFRCLNCNDNTDGIHCEKCKNGFYRHRERDRCLPCNCNSKGSLSARCDNSGRCSCKPGVTGARCDRCLPGFHMLTDAGCTQDQRLLDSKCDCDPAGIAGPCDAGRCVCKPAVTGERCDRCRSGYYNLDGGNPEGCTQCFCYGHSASCRSSAEYSVHKITSTFHQDVDGWKAVQRNGSPAKLQWSQRHQDVFSSAQRLDPVYFVAPAKFLGNQQVSYGQSLSFDYRVDRGGRHPSAHDVILEGAGLRITAPLMPLGKTLPCGLTKTYTFRLNEHPSNNWSPQLSYFEYRRLLRNLTALRIRATYGEYSTGYIDNVTLISARPVSGAPAPWVEQCICPVGYKGQFCQDCASGYKRDSARLGPFGTCIPCNCQGGGACDPDTGDCYSGDENPDIECADCPIGFYNDPHDPRSCKPCPCHNGFSCSVMPETEEVVCNNCPPGVTGARCELCADGYFGDPFGEHGPVRPCQPCQCNNNVDPSASGNCDRLTGRCLKCIHNTAGIYCDQCKAGYFGDPLAPNPADKCRACNCNPMGSEPVGCRSDGTCVCKPGFGGPNCEHGAFSCPACYNQVKIQMDQFMQQLQRMEALISKAQGGDGVVPDTELEGRMQQAEQALQDILRDAQISEGASRSLGLQLAKVRSQENSYQSRLDDLKMTVERVRALGSQYQNRVRDTHRLITQMQLSLAESEASLGNTNIPASDHYVGPNGFKSLAQEATRLAESHVESASNMEQLTRETEDYSKQALSLVRKALHEGVGSGSGSPDGAVVQGLVEKLEKTKSLAQQLTREATQAEIEADRSYQHSLRLLDSVSRLQGVSDQSFQVEEAKRIKQKADSLSSLVTRHMDEFKRTQKNLGNWKEEAQQLLQNGKSGREKSDQLLSRANLAKSRAQEALSMGNATFYEVESILKNLREFDLQVDNRKAEAEEAMKRLSYISQKVSDASDKTQQAERALGSAAADAQRAKNGAGEALEISSEIEQEIGSLNLEANVTADGALAMEKGLASLKSEMREVEGELERKELEFDTNMDAVQMVITEAQKVDTRAKNAGVTIQDTLNTLDGLLHLMDQPLSVDEEGLVLLEQKLSRAKTQINSQLRPMMSELEERARQQRGHLHLLETSIDGILADVKNLENIRDNLPPGCYNTQALEQQ	−11.6
Leucine-rich repeat-containing protein 49 (protein, UniProt Q8IUZ0 1-686, looked up) Leucine-rich …: MIPGKYRSVSGRAANNVNCGLHLVIQTSSLPEKNKVEFKLNKDTSSFPGRLLQHDLERNYSSRQGDHINLVSSSLSSFPILQRSSEEKILYSDRLSLERQKLTVCPIINGEDHLRLLNFQHNFITRIQNISNLQKLISLDLYDNQIEEISGLSTLRCLRVLLLGKNRIKKISNLENLKSLDVLDLHGNQITKIENINHLCELRVLNLARNFLSHVDNLNGLDSLTELNLRHNQITFVRDVDNLPCLQHLFLSFNNISSFDSVSCLADSSSLSDITFDGNPIAQESWYKHTVLQNMMQLRQLDMKRITEEERRMASVLAKKEEEKKRESHKQSLLKEKKRLTINNVARQWDLQQQRVANIATNEDRKDSDSPQDPCQIDGSTLSAFPEETGPLDSGLNNALQGLSVIDTYLVEVDGDTLSLYGSGALESLDRNWSVQTAGMITTVSFTFIEFDEIVQVLPKLKIKFPNSLHLKFKETNLVMLQQFNALAQLRRIDQLTIDPQGNPVVNFTLWKYYVLFRLSHFSMQKINGTEVTQNDMIMAERLFGILAHVASSELPQYRLISILGDARKKQFRYLLESKGKKPGIINEENNDSKRLVGENTNRATLNYTTRDFYNEKLEEIKEKKKFCKTYIEDLVKEATEINMKNEALQKLWPQMFIELVRDAVIEIRNKNSYMKLCLQQITDQK	−2.2

Source: patent US9134318B2, “Detection of oxidized polypeptides” (Purdue Research Foundation, priority 2009, dated 2015)
